In the supplement of paper PMC12067093, “Discovery and optimisation of a covalent ligand for TRIM25 and its application to targeted protein ubiquitination” (Chemical Science, 2025):
This is one part of the list.

Sequences of proteins named here, by UniProt entry; tags and fusion partners are left off. A change or cut given only in a name is not applied to a line headed by its entry.
UniProt O95696: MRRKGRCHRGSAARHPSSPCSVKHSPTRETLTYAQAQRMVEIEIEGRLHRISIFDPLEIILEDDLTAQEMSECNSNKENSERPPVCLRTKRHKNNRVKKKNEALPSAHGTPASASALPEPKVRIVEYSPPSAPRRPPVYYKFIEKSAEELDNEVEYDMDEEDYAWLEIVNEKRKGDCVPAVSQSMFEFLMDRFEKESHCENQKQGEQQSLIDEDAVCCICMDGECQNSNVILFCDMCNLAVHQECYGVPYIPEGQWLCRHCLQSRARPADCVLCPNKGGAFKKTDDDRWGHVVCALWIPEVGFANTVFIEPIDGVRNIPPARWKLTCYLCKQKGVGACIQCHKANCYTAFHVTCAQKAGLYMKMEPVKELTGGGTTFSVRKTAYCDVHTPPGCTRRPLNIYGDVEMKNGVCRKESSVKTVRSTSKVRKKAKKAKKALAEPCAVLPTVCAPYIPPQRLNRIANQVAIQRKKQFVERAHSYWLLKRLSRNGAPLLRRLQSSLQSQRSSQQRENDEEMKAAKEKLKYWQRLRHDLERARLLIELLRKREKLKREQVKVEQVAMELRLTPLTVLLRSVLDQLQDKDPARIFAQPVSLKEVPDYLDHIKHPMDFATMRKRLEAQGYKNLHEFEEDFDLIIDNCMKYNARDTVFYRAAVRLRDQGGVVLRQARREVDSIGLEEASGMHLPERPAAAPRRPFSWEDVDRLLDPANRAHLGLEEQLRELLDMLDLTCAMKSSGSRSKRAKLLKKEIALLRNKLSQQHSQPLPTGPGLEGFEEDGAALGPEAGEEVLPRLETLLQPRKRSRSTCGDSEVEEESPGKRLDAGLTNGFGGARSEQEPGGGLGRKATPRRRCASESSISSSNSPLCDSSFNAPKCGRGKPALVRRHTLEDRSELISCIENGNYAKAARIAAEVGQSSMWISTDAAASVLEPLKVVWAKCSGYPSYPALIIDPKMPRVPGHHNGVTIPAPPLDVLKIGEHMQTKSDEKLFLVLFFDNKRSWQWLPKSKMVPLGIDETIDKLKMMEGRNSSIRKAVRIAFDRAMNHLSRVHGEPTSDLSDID
UniProt Q8NDZ4: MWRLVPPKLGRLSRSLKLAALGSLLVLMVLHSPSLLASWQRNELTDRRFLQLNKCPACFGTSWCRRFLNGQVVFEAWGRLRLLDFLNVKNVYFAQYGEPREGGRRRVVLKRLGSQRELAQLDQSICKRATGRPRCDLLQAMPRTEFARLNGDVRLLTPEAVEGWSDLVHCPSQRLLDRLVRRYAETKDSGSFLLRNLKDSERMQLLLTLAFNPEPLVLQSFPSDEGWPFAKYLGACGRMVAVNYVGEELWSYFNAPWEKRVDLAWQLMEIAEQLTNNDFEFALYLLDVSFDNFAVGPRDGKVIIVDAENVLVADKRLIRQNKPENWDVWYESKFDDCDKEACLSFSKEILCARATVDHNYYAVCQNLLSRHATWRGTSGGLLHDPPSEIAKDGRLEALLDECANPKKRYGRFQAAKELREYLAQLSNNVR
UniProt Q6PJG6: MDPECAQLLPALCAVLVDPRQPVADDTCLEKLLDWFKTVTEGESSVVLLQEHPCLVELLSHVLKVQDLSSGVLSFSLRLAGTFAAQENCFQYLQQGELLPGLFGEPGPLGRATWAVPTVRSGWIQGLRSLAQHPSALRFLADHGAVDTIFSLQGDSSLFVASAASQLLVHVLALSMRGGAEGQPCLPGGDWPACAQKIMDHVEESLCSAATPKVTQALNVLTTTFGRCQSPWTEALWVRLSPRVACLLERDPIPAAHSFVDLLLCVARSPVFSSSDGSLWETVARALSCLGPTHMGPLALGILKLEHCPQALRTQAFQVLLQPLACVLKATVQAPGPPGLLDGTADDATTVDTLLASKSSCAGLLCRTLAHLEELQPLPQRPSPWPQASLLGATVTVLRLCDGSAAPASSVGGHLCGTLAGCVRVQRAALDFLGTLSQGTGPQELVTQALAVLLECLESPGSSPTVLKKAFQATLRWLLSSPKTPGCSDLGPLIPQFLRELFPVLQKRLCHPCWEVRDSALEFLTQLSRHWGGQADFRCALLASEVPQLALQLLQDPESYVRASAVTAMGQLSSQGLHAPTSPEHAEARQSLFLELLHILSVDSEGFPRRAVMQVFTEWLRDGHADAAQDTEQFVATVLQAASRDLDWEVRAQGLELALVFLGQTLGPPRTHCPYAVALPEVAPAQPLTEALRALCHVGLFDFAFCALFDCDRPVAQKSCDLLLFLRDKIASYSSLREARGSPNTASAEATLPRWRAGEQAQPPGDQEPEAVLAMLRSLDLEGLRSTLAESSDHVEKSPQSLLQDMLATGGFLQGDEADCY
UniProt A6NDU8: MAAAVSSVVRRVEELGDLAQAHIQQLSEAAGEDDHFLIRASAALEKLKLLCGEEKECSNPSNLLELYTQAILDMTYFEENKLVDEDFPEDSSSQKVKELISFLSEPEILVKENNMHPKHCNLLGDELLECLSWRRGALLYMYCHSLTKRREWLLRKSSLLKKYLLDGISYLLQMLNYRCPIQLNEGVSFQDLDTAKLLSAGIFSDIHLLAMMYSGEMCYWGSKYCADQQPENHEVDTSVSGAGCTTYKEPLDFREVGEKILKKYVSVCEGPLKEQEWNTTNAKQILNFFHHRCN
UniProt P01024, whole entry, looked up: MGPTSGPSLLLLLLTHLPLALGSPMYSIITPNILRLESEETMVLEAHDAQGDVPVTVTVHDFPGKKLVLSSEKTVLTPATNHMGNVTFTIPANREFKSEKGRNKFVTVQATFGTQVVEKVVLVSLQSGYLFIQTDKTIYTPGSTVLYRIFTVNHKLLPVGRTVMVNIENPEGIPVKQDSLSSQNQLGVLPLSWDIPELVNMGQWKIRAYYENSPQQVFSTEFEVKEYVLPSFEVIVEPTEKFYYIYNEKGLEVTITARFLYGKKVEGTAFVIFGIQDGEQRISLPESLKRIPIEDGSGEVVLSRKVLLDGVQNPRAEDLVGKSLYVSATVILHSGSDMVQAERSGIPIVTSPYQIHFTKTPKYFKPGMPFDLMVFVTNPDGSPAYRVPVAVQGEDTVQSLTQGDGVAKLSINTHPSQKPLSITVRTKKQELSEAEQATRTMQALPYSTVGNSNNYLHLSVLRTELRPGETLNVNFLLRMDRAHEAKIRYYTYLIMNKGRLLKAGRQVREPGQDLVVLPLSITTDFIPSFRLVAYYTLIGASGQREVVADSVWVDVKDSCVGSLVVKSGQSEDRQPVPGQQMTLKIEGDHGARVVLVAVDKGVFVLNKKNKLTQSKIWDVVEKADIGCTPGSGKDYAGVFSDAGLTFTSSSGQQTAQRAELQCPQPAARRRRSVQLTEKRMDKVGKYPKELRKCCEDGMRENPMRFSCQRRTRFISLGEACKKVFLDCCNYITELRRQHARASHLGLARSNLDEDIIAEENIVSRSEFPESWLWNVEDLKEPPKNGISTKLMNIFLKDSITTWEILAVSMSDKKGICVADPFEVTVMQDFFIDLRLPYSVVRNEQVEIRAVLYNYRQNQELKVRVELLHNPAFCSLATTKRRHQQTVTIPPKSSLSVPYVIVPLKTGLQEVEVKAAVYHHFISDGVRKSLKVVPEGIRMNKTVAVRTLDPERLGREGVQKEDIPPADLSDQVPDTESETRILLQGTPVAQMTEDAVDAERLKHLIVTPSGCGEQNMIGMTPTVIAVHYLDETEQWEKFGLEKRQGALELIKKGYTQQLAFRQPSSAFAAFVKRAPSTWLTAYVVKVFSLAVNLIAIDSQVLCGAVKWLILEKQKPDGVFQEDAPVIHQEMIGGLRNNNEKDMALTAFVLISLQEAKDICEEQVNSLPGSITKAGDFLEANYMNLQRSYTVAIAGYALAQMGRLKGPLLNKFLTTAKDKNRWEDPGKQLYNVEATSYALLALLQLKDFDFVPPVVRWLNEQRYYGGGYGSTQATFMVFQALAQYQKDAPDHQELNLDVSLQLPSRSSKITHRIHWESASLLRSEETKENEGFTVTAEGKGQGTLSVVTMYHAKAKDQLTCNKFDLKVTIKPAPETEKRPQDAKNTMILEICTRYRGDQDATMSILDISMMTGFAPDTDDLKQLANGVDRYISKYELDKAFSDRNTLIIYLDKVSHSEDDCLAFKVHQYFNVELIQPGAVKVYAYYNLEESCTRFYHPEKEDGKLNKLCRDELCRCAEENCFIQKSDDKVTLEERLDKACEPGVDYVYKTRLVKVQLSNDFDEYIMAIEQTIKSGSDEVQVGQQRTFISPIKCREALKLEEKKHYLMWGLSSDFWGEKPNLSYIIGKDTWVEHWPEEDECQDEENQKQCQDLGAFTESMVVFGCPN
UniProt Q13137: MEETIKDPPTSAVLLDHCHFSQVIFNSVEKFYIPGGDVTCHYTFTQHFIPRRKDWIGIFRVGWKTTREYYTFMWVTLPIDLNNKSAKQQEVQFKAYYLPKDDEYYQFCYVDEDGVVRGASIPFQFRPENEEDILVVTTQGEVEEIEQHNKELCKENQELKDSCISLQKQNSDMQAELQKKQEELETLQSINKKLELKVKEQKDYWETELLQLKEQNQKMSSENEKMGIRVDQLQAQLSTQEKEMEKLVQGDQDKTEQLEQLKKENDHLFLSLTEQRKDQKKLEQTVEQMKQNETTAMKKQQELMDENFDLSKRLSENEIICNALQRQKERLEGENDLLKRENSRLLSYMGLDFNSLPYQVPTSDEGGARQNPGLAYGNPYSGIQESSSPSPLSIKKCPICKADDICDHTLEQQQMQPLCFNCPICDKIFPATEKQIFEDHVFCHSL
UniProt O43684, whole entry, looked up: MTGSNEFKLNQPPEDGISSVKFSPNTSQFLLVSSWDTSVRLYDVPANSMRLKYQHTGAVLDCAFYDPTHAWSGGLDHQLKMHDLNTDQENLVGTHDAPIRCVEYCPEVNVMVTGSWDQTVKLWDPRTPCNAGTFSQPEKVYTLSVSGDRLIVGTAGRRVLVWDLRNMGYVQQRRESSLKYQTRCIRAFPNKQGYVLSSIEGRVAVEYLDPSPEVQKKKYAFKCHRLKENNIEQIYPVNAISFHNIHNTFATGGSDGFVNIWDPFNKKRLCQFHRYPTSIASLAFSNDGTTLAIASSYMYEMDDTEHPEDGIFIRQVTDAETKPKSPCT
UniProt P46736, whole entry, looked up: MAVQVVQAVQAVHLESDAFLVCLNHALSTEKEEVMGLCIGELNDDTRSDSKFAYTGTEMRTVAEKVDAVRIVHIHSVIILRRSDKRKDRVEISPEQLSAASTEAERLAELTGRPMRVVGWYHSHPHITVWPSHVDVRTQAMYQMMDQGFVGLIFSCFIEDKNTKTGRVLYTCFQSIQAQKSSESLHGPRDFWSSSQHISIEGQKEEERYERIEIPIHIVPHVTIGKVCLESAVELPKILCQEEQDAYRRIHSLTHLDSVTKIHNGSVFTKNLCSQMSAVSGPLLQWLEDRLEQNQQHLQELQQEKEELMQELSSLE
UniProt Q86VP6: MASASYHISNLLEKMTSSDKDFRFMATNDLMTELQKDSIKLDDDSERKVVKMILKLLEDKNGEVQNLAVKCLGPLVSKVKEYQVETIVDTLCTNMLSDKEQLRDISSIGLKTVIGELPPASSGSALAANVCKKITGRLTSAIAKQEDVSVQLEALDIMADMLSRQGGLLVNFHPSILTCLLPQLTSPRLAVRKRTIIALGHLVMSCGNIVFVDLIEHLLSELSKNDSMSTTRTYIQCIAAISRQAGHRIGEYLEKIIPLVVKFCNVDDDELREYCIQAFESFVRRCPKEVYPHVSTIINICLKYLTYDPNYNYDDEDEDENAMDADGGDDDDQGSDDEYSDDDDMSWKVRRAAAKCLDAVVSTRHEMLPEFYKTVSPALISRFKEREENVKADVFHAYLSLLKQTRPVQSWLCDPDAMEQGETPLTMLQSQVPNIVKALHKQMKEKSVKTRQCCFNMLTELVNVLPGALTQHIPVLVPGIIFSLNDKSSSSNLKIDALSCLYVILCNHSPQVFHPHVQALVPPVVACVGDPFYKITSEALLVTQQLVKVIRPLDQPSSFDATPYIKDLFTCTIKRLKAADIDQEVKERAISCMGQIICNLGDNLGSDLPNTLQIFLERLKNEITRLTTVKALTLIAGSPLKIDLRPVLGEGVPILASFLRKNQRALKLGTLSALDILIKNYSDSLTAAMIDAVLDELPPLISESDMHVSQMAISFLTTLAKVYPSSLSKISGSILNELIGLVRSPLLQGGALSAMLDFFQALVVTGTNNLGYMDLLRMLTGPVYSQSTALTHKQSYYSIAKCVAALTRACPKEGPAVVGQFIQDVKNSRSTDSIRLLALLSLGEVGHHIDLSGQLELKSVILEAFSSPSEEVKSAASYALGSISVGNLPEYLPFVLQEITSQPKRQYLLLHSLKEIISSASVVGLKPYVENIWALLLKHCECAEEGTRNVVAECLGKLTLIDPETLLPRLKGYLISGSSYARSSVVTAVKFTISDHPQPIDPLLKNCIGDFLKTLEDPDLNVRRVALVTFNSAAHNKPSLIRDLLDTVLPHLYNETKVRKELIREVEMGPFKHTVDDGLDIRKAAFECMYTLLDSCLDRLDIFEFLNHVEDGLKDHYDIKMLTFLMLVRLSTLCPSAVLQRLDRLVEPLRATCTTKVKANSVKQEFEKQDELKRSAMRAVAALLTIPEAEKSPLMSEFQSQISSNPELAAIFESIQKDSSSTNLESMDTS

Compound: CC1Cc2ccccc2N1C(=O)C1CCCN(C1)C(=O)CCl (mixture of isomers) [TRIM25 ligand 11 (diastereomer mixture)]
Experiment: probe-labelled cysteine peptide fold change vs DMSO (competition) (log2 fold change); higher = less target engagement (more negative = stronger competition)
Conditions: THP-1, incubation time: 4 h
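Note: competitive chemoproteomic profiling in live THP-1 cells with an iodoacetamide desthiobiotin (IA-DTB) probe, comparing probe-labelled peptide intensities in compound-treated cells against DMSO-treated controls.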

| Target | probe-labelled cysteine peptide fold change (10 µM) | probe-labelled cysteine peptide fold change (50 µM) |
| --- | --- | --- |
| BRD1_O95696_199_ESHCENQK (UniProt O95696) | -0.101 | -0.027 |
| CACYBP_Q9HB71_154_TDTVLILCR (UniProt Q9HB71) | -0.142 | -0.00742 |
| BRAP_Q7Z569_47_TTLASAVACLEGK (UniProt Q7Z569) | -0.0997 | -0.0219 |
| C3orf80_F5H4A9_177_SDPSCASEHEMR (UniProt F5H4A9) | 0.175 | -0.00987 |
| C3orf58_Q8NDZ4_170_LLTPEAVEGWSDLVHCPSQR (UniProt Q8NDZ4) | -0.218 | 0.0117 |
| BRAT1_Q6PJG6_265_DPIPAAHSFVDLLLCVAR (UniProt Q6PJG6) | -0.0702 | -0.00745 |
| C5orf51_A6NDU8_120+130_HCNLLGDELLECLSWR (UniProt A6NDU8) | 0.467 | 0.253 |
| C3_P01024_662_AELQCPQPAAR (UniProt P01024) | 0.0947 | -0.137 |
| CAMK2D_Q13557_116_EYYSEADASHCIQQILESVNHCHLNGIVHR (UniProt Q13557) | -0.0701 | -0.0602 |
| CALCOCO2_Q13137_163_DSCISLQK (UniProt Q13137) | -0.0359 | 0.0121 |
| C3_P01024_1458_VSHSEDDCLAFK (UniProt P01024) | 0.259 | 0.228 |
| C1QBP_Q07021_186_ALVLDCHYPEDEVGQEDEAESDIFSIR (UniProt Q07021) | -0.116 | 0.0508 |
| BTBD10_Q9BSF8_86_TESQLTPCIR (UniProt Q9BSF8) | -0.149 | -0.433 |
| BPTF_Q12830_2697_MIVCNQVMK (UniProt Q12830) | -0.0687 | -0.135 |
| BTAF1_O14981_1651_ILIFCQLK (UniProt O14981) | 0.0915 | 0.157 |
| BUB1B_O60566_767_EIELGNEDYCIKR (UniProt O60566) | -0.0942 | 0.0707 |

| Target | probe-labelled cysteine peptide fold change (10 µM) | probe-labelled cysteine peptide fold change (50 µM) |
| --- | --- | --- |
| C2CD2_Q9Y426_244_EAQNLQCAASTAQESCPPKPPR (UniProt Q9Y426) | -0.108 | -0.0779 |
| BRAT1_Q6PJG6_308_LEHCPQALR (UniProt Q6PJG6) | -0.0237 | 0.00856 |
| BRD1_O95696_729_ELLDMLDLTCAMK (UniProt O95696) | -0.0243 | -0.232 |
| BUB3_O43684_270_RLCQFHR (UniProt O43684) | 0.0429 | 0.198 |
| BRCC3_P46736_240_ILCQEEQDAYR (UniProt P46736) | 0.133 | 0.0603 |
| C2CD2L_O14523_385_RQLCPLTPGPGK (UniProt O14523) | -0.00642 | -0.00325 |
| CAD_P27708_2016_GESLADSVQTMSCYADVVVLR (UniProt P27708) | -0.125 | 0.0475 |
| CAND1_Q86VP6_802_CVAALTR (UniProt Q86VP6) | -0.00141 | 0.102 |
| C12orf10_Q9HB07_56+62_IGTHNGTFHCDEALACALLR (UniProt Q9HB07) | 0.0606 | -0.0519 |
| BUB1_O43683_698_LSQPAAGGVLTCEAELGVEACR (UniProt O43683) | -0.205 | 0.0685 |
| C2CD5_Q86YS7_486_CGFCHIPYDELNMPFPAHLTYCYNCR (UniProt Q86YS7) | 0.141 | 0.0706 |
| CALCOCO2_Q13137_443_QIFEDHVFCHSL (UniProt Q13137) | -0.145 | -0.242 |
| BRCA1_P38398_1513_WYMHSCSGSLQNR (UniProt P38398) | 0.0311 | -0.124 |
| CAND2_O75155_375_CIAALISSRPDLLPDFHCTLAPVLIR (UniProt O75155) | 0.0844 | -0.333 |
| BRCA2_P51587_1399_AQEACHGNTSNK (UniProt P51587) | 0.0546 | -0.116 |

An excerpt of these results, in CSV form.
Target,probe-labelled cysteine peptide fold change (10 µM),probe-labelled cysteine peptide fold change (50 µM)
BUB3_O43684_270_RLCQFHR (UniProt O43684),0.0429,0.198
BRCC3_P46736_240_ILCQEEQDAYR (UniProt P46736),0.133,0.0603
